The target in experiment [1] is GST-tagged cytoplasmic domain of CD18 (UniProt P05107). Nature of the experiment: pull-down; purified GST-CD18cyt bound to glutathione-sepharose incubated with lysates of HEK 293T cells expressing dsRed, dsRed-tagged FLNa or its mutants, 2 h at 4°C; Western blot; only the target purified. Background: Immunoblotting shows a protein as a band on a membrane.
The target of experiment [2] is Filamin A (endogenous, Jurkat T cells) (human (endogenous in Jurkat)) (UniProt P21333). Nature of the experiment: co-IP; FLNa immunoprecipitated from lysates of Jurkat T cells left untreated or stimulated with CD3 antibodies for the indicated times; blot for LFA-1 and pS2152 FLNa.
Experiment [3] has as its target lymphocyte function-associated antigen-1 (LFA-1; CD11a/CD18), endogenous in Jurkat T cells (human (endogenous in Jurkat)) (UniProt P20701+P05107). Nature of the experiment: co-IP; LFA-1 immunoprecipitated with anti-CD11a antibodies from lysates of Jurkat T cells (shC-transfected or re-expressing WT Ndr2), untreated or stimulated with CD3 antibodies up to 30 min; blots for FLNa, Talin and Kindlin-3; Talin and Kindlin-3 at low levels in resting cells, FLNa declines after stimulation.

The chains behind the UniProt entries cited, without tags or fusion partners. Where a name states a change or a piece, a line headed by the entry shows the natural chain unless it says otherwise. Residues count along the entry.
UniProt P05107, residues 724-769: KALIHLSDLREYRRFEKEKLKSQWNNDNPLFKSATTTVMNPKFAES
UniProt P21333: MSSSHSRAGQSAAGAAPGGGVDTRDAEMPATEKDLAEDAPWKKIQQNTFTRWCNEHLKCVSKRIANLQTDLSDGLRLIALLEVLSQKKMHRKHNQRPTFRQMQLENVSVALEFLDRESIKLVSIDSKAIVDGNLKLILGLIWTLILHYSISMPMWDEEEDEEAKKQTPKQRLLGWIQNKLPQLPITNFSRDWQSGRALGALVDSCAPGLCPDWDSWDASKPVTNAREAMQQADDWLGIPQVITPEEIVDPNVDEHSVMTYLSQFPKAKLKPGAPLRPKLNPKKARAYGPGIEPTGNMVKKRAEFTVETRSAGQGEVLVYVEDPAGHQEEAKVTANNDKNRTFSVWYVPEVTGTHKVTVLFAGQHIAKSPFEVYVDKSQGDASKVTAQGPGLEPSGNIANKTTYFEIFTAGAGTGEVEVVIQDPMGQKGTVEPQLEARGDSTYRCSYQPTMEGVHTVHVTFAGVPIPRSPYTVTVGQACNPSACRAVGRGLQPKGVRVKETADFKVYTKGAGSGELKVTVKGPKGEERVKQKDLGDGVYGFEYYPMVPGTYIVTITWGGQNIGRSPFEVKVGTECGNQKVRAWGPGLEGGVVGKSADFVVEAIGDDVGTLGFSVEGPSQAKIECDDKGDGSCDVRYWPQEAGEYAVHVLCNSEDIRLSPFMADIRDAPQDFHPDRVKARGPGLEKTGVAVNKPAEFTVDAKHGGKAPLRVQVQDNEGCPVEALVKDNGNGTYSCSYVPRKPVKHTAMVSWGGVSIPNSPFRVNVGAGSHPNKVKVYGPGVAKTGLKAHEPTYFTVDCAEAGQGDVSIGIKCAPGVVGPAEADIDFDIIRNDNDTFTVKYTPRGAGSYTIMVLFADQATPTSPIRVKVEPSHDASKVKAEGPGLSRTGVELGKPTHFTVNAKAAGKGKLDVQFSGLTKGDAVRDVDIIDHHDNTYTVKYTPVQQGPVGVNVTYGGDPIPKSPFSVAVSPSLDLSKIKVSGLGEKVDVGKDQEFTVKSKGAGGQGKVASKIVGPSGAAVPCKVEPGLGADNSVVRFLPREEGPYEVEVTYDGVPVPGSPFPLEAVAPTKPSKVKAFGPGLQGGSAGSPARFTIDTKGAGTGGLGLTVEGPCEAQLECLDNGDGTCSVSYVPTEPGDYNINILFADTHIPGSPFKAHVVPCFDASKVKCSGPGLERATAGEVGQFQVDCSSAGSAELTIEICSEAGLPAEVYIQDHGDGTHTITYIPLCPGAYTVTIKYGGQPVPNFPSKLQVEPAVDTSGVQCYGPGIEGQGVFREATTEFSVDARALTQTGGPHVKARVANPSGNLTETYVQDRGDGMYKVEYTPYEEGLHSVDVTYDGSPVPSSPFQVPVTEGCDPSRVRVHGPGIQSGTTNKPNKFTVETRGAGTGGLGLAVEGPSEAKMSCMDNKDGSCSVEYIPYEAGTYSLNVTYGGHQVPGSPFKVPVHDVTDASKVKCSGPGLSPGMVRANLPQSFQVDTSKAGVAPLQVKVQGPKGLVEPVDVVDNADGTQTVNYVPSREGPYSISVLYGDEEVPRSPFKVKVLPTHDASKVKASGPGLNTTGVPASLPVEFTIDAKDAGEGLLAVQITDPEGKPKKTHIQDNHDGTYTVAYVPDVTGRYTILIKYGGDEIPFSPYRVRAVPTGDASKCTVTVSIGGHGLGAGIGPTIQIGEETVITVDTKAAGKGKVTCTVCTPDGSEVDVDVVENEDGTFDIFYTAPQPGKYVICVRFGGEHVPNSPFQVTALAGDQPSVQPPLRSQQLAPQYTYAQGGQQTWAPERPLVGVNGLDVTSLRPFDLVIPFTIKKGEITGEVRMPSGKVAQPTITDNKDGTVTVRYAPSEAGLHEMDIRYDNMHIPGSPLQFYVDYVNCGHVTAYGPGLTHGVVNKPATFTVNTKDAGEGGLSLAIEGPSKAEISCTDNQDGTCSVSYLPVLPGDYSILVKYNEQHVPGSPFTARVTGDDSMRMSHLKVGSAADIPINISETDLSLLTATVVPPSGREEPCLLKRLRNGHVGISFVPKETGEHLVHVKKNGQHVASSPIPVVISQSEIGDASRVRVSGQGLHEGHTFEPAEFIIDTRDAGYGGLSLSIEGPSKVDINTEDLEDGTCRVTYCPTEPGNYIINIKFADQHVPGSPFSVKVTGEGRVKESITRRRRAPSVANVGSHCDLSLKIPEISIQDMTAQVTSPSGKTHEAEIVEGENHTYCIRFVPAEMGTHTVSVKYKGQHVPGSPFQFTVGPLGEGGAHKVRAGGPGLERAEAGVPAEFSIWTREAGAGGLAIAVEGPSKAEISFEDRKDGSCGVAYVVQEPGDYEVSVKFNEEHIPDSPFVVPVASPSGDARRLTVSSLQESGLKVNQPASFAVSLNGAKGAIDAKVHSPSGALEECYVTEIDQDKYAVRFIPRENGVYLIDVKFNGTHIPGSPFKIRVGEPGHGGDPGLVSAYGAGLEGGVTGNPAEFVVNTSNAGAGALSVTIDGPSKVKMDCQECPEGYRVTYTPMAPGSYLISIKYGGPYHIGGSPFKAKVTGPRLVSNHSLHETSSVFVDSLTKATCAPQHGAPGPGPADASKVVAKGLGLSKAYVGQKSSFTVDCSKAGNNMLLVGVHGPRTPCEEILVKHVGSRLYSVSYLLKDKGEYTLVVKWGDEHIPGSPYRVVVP
UniProt P20701: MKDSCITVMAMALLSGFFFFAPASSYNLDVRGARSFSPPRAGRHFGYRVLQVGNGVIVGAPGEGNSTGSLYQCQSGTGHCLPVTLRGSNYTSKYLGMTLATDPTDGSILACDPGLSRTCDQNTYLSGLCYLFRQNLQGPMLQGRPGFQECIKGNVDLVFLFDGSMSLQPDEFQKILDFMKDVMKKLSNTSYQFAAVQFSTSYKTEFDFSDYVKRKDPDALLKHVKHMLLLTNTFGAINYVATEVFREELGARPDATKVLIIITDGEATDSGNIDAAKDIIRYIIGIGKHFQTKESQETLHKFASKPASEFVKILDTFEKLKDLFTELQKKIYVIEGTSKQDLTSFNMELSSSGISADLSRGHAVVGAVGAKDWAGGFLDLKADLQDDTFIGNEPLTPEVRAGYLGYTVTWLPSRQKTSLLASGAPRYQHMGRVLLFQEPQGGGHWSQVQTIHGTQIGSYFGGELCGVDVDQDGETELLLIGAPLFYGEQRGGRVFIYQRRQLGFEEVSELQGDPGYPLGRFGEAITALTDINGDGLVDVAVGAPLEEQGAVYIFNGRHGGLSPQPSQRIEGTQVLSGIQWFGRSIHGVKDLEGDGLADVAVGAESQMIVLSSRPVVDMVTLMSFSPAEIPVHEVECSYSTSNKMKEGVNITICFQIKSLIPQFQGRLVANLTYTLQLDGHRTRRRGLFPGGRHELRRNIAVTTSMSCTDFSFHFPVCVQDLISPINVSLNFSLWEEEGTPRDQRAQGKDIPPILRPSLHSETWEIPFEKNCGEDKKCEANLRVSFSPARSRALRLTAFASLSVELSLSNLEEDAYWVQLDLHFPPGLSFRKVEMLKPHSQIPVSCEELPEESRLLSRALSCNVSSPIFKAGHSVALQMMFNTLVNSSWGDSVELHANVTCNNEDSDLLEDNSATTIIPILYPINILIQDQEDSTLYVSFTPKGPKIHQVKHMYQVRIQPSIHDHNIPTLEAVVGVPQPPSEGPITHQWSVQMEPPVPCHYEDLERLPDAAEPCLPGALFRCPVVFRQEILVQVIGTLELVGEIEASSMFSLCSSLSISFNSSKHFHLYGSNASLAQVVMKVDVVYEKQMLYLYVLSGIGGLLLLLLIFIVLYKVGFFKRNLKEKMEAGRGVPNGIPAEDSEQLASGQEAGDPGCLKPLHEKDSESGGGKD

No constants are given. Whether binding was seen depends on the method and setting. Binding seen in cells or lysates may run through a third protein. Some entries that bind do so weakly or less than the wild type.

For the substance “dsRed-tagged FLNa S2152A mutant (from UniProt P21333 1-2647)”, the binding result in experiment [1] is “binds”.
Take “dsRed-tagged FLNa S2152E mutant (from UniProt P21333 1-2647)”: in experiment [1], the binding result is listed as “no binding”.
As for “lymphocyte function-associated antigen-1 (LFA-1; CD11a/CD18), endogenous in Jurkat T cells (from UniProt P20701 26-1170; P05107 23-769) (complex)”, the binding result in experiment [2] is on record as “binds”.
For “dsRed-tagged wild type Filamin A (from UniProt P21333 1-2647)”, the binding entry in experiment [1] was “binds”.
On to “Filamin A (endogenous, Jurkat T cells) (from UniProt P21333 1-2647)”, for which, in experiment [3], the binding result is reported as “binds”.
